Results as given in the supplement of paper PMC11006884.
The list shows a part of the results, in another mix than the full data.

Chains of the proteins cited; added tags and fusions are not shown. Lines headed by an entry give the natural chain unless they say otherwise; changes in a name come on top.
UniProt Q9UGP4: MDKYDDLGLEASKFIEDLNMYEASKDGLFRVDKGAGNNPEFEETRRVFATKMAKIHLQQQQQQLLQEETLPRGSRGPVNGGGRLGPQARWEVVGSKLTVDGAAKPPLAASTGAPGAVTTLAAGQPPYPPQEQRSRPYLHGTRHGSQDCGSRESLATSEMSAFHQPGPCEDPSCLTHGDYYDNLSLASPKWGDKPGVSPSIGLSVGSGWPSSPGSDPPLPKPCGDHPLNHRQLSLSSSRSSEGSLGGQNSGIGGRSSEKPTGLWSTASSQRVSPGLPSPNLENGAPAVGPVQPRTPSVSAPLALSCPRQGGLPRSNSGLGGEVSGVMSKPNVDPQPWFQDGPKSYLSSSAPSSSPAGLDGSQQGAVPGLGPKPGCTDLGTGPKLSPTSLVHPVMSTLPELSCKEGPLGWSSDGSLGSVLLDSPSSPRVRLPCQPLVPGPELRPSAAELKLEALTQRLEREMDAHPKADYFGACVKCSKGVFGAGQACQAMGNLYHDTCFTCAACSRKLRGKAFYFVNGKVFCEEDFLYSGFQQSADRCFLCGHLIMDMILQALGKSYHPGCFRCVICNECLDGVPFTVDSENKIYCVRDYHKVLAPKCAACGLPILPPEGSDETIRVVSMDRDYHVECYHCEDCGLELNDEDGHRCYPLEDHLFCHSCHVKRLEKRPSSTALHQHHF
UniProt Q9UGP8: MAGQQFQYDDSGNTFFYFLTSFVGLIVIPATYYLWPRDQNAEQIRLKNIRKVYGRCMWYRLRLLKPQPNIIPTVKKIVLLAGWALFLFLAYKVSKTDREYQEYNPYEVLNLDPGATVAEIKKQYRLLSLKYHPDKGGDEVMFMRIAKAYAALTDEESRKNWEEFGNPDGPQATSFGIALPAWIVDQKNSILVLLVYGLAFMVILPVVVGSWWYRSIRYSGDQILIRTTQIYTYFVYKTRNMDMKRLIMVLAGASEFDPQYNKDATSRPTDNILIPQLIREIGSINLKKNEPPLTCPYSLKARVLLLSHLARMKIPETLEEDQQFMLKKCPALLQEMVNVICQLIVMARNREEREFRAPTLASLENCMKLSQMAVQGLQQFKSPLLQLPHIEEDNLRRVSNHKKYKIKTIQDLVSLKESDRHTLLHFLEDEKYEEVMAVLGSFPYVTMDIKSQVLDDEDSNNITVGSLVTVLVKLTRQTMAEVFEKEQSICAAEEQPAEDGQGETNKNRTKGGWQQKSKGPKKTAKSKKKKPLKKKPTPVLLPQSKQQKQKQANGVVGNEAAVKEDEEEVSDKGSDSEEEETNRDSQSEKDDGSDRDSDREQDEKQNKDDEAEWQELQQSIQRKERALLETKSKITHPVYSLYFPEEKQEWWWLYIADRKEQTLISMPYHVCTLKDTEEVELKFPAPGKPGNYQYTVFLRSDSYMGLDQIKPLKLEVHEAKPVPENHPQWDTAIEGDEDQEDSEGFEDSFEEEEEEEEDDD
UniProt Q9NZL9, whole entry, looked up: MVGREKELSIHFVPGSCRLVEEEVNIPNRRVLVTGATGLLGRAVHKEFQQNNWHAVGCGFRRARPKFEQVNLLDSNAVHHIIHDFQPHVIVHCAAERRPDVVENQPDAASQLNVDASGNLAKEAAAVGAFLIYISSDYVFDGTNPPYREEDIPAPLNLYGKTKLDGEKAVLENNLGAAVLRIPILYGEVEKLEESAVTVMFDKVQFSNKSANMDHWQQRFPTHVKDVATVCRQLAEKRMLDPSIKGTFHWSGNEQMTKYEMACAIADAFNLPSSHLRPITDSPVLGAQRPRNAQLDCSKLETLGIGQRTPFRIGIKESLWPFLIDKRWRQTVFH
UniProt Q9UBW7: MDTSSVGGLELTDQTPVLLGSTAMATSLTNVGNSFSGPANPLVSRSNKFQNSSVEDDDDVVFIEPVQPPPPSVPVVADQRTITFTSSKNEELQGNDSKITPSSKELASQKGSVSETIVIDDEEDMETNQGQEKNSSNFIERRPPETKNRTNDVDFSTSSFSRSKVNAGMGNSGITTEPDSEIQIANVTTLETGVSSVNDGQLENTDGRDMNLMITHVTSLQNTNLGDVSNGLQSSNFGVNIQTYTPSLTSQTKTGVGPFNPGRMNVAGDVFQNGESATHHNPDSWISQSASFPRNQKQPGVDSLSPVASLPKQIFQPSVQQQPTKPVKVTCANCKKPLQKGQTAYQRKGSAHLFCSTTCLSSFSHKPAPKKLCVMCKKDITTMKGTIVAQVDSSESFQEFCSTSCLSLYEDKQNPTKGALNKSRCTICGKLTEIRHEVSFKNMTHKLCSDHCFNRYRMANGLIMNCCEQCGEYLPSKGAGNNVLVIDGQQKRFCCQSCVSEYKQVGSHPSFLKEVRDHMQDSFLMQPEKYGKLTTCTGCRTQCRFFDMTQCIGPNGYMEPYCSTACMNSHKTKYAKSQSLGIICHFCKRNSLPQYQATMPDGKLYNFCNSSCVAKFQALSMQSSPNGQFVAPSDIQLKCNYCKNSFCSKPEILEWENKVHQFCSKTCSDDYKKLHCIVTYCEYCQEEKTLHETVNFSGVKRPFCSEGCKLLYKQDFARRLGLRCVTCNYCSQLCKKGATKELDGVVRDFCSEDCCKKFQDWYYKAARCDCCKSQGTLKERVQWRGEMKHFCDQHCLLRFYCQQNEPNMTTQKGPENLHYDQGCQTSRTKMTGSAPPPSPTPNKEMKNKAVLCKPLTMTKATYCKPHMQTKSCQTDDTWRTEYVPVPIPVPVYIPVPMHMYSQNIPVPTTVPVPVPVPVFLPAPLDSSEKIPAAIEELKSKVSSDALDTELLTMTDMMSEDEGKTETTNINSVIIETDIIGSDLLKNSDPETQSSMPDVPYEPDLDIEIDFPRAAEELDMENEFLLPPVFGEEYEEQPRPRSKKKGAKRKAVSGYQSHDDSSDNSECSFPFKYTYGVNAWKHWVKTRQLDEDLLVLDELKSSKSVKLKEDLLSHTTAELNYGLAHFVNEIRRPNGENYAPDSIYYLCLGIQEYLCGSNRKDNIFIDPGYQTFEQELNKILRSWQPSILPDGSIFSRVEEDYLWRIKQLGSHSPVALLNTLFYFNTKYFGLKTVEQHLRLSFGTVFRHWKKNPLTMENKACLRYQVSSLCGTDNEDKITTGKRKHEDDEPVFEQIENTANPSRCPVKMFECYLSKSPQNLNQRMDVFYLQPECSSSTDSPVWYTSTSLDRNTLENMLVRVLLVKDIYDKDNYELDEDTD
UniProt Q9NVI1: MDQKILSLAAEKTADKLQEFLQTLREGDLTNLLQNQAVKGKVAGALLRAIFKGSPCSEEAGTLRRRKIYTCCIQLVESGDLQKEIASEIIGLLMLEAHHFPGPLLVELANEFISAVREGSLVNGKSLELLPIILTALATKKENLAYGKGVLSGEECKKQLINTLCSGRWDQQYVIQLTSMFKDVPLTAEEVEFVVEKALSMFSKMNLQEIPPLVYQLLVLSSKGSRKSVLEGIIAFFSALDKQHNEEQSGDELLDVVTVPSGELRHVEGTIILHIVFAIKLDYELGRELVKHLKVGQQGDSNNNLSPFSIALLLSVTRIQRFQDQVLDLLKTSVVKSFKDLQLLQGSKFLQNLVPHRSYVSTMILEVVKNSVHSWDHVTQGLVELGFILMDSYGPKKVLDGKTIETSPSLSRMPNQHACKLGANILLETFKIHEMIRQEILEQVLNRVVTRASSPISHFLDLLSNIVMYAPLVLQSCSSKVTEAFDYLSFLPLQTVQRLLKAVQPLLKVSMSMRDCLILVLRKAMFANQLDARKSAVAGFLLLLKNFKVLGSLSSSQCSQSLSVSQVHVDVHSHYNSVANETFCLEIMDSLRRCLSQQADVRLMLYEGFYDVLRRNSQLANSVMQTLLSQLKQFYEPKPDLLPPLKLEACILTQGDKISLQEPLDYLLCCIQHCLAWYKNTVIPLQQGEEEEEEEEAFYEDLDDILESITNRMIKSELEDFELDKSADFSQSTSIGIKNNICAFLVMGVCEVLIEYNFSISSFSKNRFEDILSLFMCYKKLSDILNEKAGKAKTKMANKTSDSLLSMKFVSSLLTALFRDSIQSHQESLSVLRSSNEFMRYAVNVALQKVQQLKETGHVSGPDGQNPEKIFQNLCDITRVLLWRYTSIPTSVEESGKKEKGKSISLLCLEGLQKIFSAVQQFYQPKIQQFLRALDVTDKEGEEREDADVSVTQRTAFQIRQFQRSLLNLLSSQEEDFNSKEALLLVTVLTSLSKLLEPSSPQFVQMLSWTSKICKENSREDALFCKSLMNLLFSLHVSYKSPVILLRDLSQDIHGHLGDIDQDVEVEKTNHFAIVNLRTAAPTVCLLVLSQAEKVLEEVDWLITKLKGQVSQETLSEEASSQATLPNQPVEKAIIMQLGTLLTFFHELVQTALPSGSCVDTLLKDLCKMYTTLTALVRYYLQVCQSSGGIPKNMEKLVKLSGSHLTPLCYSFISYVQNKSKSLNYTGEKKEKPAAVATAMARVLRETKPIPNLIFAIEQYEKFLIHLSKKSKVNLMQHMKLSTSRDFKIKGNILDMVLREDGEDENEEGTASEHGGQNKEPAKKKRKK
UniProt Q9P1Y6: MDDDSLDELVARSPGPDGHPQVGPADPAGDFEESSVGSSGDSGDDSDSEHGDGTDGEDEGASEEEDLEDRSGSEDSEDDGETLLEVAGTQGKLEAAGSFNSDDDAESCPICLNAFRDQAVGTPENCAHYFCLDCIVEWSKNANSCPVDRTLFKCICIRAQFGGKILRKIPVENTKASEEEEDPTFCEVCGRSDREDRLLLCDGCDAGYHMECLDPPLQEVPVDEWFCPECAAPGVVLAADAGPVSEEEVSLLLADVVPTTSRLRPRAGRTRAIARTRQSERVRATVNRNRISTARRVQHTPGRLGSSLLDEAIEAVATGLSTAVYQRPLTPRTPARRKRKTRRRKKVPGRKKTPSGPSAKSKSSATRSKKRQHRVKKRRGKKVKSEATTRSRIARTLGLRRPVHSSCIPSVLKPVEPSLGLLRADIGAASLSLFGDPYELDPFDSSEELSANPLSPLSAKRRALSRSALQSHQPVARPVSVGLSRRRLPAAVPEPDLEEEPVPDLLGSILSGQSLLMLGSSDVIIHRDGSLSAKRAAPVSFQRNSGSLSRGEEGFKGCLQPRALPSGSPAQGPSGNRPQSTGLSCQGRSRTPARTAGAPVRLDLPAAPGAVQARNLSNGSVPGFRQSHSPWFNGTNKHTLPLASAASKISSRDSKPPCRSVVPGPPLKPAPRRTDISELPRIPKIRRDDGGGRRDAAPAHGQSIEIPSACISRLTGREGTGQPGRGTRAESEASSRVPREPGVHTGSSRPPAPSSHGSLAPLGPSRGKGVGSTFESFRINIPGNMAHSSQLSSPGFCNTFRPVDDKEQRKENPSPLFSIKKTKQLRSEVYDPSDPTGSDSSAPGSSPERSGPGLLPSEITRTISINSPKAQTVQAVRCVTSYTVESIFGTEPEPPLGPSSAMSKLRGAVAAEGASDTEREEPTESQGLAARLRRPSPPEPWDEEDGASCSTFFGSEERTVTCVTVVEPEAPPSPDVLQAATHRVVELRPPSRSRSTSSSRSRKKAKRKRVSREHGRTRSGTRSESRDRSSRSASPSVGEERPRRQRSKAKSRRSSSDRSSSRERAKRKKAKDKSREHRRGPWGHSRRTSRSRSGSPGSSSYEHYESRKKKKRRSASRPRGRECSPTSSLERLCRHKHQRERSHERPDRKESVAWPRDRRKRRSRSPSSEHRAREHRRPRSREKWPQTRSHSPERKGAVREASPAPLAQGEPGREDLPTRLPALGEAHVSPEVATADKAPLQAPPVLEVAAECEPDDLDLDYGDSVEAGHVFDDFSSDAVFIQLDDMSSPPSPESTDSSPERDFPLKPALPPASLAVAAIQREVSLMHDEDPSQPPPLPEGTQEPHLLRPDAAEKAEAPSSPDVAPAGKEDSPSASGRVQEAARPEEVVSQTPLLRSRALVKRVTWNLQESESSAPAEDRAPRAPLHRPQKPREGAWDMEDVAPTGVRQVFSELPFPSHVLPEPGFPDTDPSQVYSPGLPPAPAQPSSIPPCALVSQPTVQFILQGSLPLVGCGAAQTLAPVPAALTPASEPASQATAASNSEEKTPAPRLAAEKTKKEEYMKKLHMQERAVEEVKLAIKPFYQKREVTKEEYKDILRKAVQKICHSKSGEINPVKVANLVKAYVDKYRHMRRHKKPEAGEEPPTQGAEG
UniProt Q9NY27: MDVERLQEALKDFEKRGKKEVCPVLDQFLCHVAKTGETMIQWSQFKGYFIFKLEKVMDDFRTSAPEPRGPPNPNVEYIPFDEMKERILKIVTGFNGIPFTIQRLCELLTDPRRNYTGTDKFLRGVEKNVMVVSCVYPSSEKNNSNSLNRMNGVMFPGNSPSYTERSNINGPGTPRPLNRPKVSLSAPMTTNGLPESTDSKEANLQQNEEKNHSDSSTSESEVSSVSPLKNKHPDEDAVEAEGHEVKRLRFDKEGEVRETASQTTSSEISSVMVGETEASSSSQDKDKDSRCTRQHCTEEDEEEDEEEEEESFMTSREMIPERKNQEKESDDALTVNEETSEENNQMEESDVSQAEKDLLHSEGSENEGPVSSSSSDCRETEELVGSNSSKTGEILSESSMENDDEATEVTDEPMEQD

compound: COC(=O)C#Cc1ccccc1 [methyl 3-phenylpropiolate]; assay: log2 ratio of iodoacetamide-alkyne labeling of the cysteine site, DMSO over compound (competition); higher = stronger covalent engagement of the cysteine by the compound, active = 1 or more; conditions: 500 µM; treatment time 1 h; system: HEK293T cell lysate
Method in brief: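 HEK293T lysate at 2 mg/mL was treated with vehicle or electrophile (500 µM) for 1 h at ambient temperature, then labelled with iodoacetamide alkyne (1 h), clicked to sCIP-TMT reagents, pooled, digested with trypsin overnight at 37 °C, enriched on streptavidin and eluted with acid. Peptides were analysed by Orbitrap Eclipse LC-MS/MS with FAIMS and quantified in FragPipe, using duplicate channels and three replicates, with cysteines quantified in only one replicate excluded. The log2 competition ratio for each cysteine is the mean control-channel reporter intensity divided by the mean compound-channel reporter intensity.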

log2 ratio of iodoacetamide-alkyne labeling, active:
LIMD1 C305 (UniProt Q9UGP4) 1.43

log2 ratio of iodoacetamide-alkyne labeling, inactive:
ADD3 C73 (UniProt Q9UEY8) 0.00986
UniProt Q9NUQ3_C101 0.733
GMIP C895 (UniProt Q9P107) 0.389
UniProt Q9NWY4_C17 0.873
SEC63 C366 (UniProt Q9UGP8) -0.163
UniProt Q9NVA2_C41 -0.218
VAPA C60 (UniProt Q9P0L0) 0.173
MAT2B C297 (UniProt Q9NZL9) 0.176
UBA2 C30 (UniProt Q9UBT2) 0.198
WWOX C382 (UniProt Q9NZC7) 0.00878
ZMYM2 C852 (UniProt Q9UBW7) 0.581
FANCI C1209 (UniProt Q9NVI1) 0.0742
SRP68 C247 (UniProt Q9UHB9) 0.197
NECAP2 C133 (UniProt Q9NVZ3) 0.451
INTS10 C7 (UniProt Q9NVR2) 0.735
PHRF1 C797 (UniProt Q9P1Y6) 0.306
PPP4R2 C296 (UniProt Q9NY27) 0.921
FAM120C C14 (UniProt Q9NX05) 0.327
ZC3H7B C925 (UniProt Q9UGR2) -0.0926
DDX56 C286 (UniProt Q9NY93) 0.51
LIMD1 C401 (UniProt Q9UGP4) 0.204

Fetched one by one from the list above (2):
log2 ratio of iodoacetamide-alkyne labeling, inactive:
ZMYM2 C852 (UniProt Q9UBW7) 0.581
LIMD1 C401 (UniProt Q9UGP4) 0.204
